No constants are given. Whether binding was seen depends on the method and setting. In cells and extracts the contact can be indirect. A result given as binding can be weak or reduced; the word gives no strength. Sequences can lack the tags named with a protein.
T1: Flag-tagged Eyes absent (Eya), wild type (Drosophila) (UniProt Q05201)
T1 sequence: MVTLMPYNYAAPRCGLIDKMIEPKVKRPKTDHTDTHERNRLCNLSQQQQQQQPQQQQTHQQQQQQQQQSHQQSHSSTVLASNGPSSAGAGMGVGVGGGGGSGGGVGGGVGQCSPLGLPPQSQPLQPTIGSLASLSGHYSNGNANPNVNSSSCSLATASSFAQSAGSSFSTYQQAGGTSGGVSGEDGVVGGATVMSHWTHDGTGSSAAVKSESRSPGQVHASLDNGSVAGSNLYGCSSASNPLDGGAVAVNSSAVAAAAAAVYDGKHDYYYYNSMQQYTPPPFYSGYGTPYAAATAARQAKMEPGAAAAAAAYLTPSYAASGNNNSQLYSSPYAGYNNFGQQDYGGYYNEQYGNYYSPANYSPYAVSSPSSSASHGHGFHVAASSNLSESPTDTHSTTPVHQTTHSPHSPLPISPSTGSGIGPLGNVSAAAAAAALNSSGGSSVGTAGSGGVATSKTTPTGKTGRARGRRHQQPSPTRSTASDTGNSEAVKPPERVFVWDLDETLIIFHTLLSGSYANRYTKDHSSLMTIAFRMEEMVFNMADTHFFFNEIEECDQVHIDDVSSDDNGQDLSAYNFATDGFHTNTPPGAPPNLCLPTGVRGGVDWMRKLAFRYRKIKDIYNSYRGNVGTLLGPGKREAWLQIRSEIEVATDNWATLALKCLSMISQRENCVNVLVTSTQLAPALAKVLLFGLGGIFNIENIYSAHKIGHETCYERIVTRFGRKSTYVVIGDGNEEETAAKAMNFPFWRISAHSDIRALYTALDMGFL

The chains behind the UniProt entries cited, without tags or fusion partners. Where a name states a change or a piece, a line headed by the entry shows the natural chain unless it says otherwise. A line that says so, or that is headed by a name, gives the form on record, which may keep a tag or linker.
UniProt O18381: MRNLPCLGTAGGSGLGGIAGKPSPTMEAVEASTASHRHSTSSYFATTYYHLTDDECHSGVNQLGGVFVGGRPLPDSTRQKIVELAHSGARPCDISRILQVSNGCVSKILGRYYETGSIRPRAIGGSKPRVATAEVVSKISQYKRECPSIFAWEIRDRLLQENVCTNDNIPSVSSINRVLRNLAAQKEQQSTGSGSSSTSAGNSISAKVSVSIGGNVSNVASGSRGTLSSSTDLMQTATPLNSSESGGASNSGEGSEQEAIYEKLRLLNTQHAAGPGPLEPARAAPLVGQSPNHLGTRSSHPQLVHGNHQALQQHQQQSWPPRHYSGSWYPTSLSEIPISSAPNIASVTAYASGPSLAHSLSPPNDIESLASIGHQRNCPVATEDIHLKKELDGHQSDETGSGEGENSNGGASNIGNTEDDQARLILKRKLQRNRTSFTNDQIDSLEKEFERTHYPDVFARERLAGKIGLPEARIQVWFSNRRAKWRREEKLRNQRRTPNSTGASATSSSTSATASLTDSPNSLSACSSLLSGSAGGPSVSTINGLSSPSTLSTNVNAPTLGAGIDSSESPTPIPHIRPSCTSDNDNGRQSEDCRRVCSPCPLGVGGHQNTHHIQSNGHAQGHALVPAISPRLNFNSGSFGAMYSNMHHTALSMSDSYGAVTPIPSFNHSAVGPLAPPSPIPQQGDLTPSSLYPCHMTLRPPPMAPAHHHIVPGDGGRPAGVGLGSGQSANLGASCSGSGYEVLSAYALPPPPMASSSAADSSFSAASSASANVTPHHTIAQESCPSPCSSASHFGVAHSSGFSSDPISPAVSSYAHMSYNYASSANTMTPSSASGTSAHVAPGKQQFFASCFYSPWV
HA-tagged Eyeless (Ey) (O18381, form named): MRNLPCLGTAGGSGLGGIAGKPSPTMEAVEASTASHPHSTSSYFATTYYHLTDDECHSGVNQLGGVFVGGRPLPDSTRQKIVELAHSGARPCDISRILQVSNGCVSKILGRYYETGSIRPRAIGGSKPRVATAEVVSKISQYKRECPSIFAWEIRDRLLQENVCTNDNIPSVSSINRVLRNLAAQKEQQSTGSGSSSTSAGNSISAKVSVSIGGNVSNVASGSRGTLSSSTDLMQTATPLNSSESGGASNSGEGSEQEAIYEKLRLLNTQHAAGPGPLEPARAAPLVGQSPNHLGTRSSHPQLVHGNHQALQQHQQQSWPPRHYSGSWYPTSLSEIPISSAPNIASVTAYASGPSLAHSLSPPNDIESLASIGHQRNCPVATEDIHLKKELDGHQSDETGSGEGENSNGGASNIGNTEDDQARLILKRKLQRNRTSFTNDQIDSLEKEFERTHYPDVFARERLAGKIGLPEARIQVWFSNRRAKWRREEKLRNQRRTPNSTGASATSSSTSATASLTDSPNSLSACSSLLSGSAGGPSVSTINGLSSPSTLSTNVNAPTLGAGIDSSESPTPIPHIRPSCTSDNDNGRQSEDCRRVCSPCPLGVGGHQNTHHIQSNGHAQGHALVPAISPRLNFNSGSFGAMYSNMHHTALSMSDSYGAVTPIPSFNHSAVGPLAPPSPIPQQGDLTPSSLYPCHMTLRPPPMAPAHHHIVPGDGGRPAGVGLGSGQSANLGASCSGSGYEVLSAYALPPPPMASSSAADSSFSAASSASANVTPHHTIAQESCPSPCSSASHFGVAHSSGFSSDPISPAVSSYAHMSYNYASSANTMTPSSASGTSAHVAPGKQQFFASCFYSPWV

B1: Myc-tagged Sine oculis (So) (protein, UniProt Q27350 1-416)
chain: MLQHPATDFYDLAAANAAAVLTARHTPPYSPTGLSGSVALHNNNNNNSSTSNNNNSTLDIMAHNGGGAGGGLHLNSSSNGGGGGGVVSGGGSGGRENLPSFGFTQEQVACVCEVLQQAGNIERLGRFLWSLPQCDKLQLNESVLKAKAVVAFHRGQYKELYRLLEHHHFSAQNHAKLQALWLKAHYVEAEKLRGRPLGAVGKYRVRRKFPLPRTIWDGEETSYCFKEKSRSVLRDWYSHNPYPSPREKRDLAEATGLTTTQVSNWFKNRRQRDRAAEHKDGSTDKQHLDSSSDSEMEGSMLPSQSAQHQQQQQQQQHSPGNSSGNNNGLHQQQLQHVAAEQGLQHHPHQPHPASNIANVAATKSSGGGGGGGVSAAAAAQMQMPPLTAAVAYSHLHSVMGAMPMTAMYDMGEYQHL

Tests used:
Assay in all cases: co-IP; Flag-Eya (wild type or mutant) co-expressed with HA-Ey, Myc-So or HA-Dac in S2 cells; lysis in Pierce IP lysis buffer; IP with anti-Flag agarose beads 2 h at 4 °C; western blot with anti-HA, anti-Myc, anti-Flag
[1] = biological target: Flag-tagged Eya^Y4 (threonine phosphatase-dead Eya, four tyrosines to alanine) (Drosophila) (UniProt Q05201)
[2] = biological target: Flag-tagged Eya^ΔTPM (Eya with the threonine phosphatase motif deleted) (Drosophila) (UniProt Q05201)
[3] = biological target: Flag-tagged Eya^ΔPST/TPM (Eya with the PST/TPM domain deleted) (Drosophila) (UniProt Q05201)
[4] = biological target: T1, Flag-tagged Eyes absent (Eya), wild type (Drosophila)

Molecule	binding [1]	binding [2]	binding [3]	binding [4]
HA-tagged Eyeless (Ey) (from UniProt O18381 1-857)	binds	binds	binds	
HA-tagged Dachshund (Dac) (Drosophila)				binds
B1	binds	binds	binds	

From PMC4793267
